Reference: patent EP0115929A1, “Novel organic platinum complex and process for the preparation thereof” (priority 1983, dated 1984)

Columns and labels:
Leukemia L-1210 = experiment: Effect on life span of mice implanted with Leukemia L-1210 (Method B); assay type: in vivo; conditions: ratio OD/ILS30; footnote *4 in image
Description: […] test compound was begun 24 hours after the inoculation of the leukemic cells and performed once a day for 5 days. The survival days of the treated mice were observed.

[1] = tested on: Ehrlich ascites carcinoma; experiment: Preventive effect against the growth of Ehrlich ascites carcinoma (Method A); assay type: in vivo, mice; conditions: footnote *5 in image; fits MTD/MED
Text: It may be useful to prolong the survival time of warm-blood .animals, including human,.afflicted with tumors and/or minimize the growth of tumors in said animals. […] The compound of the present invention is also useful for the treatment of various other tumors such as prostate tumor, orchis tumor, ovary tumor, malignant lymphoma, leukemia, breast cancer and the like.

| Substance | Therapeutic index (OD/ILS30) (Leukemia L-1210) | Thera-peutic index [1] |
| --- | --- | --- |
| cis-Dioxamato(2-aminomethylpyridine) platinum (II) [Compound 3] | 60.6 |  |
| cis-Malonato(2-aminomethylpyridine) platinum (II) [Compound 2] | 55.6 | 32 |
| cis-Oxalato(2-aminomethylpyridine) platinum (II) [Compound 1] | 76.9 | 32 |
